# Data as given in PubChem BioAssay AID504791 (Drosophila RNAi Screening Center, 2011).
# Assay: 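Factors in Argonaute-based small RNA production and activity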 (primary screen)
# Cells: Drosophila S2-derived reporter cells
# Reagent: long dsRNA against Drosophila genes, about 150-250 ng dsRNA per well (siRNA assay); about 80-120 ng (miRNA assay)
# Timing: about 5 days (siRNA assay); about 4 days (miRNA assay)
# Treatment: copper sulfate induction of reporters: 25 µM (siRNA assay); 200 mM stated (miRNA assay), 1-2 days before reading
# Detection: 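Dual luciferase assay: Renilla to firefly signal ratio in each well, scaled to the mean ratio of its plate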
# Scale: siRNA reporter hit score: higher = 3 marks a strong hit with raised ratio; -3 a strong hit with lowered ratio
# Call rule: 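First-pass picks had plate-scaled ratios over 1.5 for the siRNA assay, over 1.6 for the miRNA assay, or under 0.6; two distinct dsRNAs had to score alike on retest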
# The screen tested about 23,000 reagents; this is an unselected part of those with a known target gene and a result. In the full data, 199 (0.86%) are marked active. 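Plate-scaled ratios behind the calls are not deposited; printed light signals are raw; many rows marked increased or decreased are still called inactive.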 A plus sign joins genes that one reagent is predicted to hit.
Target gene,dsRNA,siRNA reporter hit score,stable siRNA reporter change,miRNA reporter change,"stable assay Renilla, run 1 (luminescence)","stable assay firefly, run 1 (luminescence)",outcome
CG6026,DRSC15950,,,,8445,4.41e5,inactive
Ufd4,DRSC02871,,,,8640,3.95e5,inactive
Ocrl,DRSC18576,,,,6559,3.49e5,inactive
CG31523,DRSC12009,,,,5392,4.21e5,inactive
CG31523,DRSC12337,,,,4280,3.93e5,inactive
Rab3-GAP,DRSC02001,,,,26192,6.30e5,inactive
CG14380,DRSC14840,,,,7242,4.58e5,inactive
Rab27,DRSC18567,,,,7552,4.40e5,inactive
cdi,DRSC16922,,,,8140,3.12e5,inactive
CG12376,DRSC06144,,,,8455,3.96e5,inactive
CG31741,DRSC02887,,,,7376,4.43e5,inactive
mxt,DRSC00551,,,,9748,2.76e5,inactive
east,DRSC18770,,,,6407,5.73e5,inactive
CG1789,DRSC18140,,,,9760,6.25e5,inactive
CG14511,DRSC14863,,,,4844,2.86e5,inactive
CG31436,DRSC14661,3,,,6614,3.55e5,inactive
CLIP-190,DRSC03283,,,,8892,1.67e6,inactive
His-Psi:CR31754,DRSC22051,,,,8523,6.99e5,inactive
CG33303,DRSC02848,,,,6563,3.24e5,inactive
Nf-YB,DRSC02057,,,,6759,3.61e5,inactive
CG13334,DRSC06369,,,,5595,3.07e5,inactive
CG9915,DRSC21565,,,,9444,6.55e5,inactive
AttB,DRSC06734,,,,6691,3.76e5,inactive
btl,DRSC11331,,,,7783,5.21e5,inactive
CG2127,DRSC06821,,,,6708,3.78e5,inactive
Trf,DRSC03462,,,,7422,3.77e5,inactive
CG4678,DRSC19911,,,,5631,4.39e5,inactive
CG4678,DRSC19912,,,,5643,4.03e5,inactive
Ask1,DRSC16789,,,,6658,3.40e5,inactive
Ask1,DRSC21697,,,,10018,6.02e5,inactive
Mgat3,DRSC01305,,,,5895,5.47e5,inactive
RpS5a,DRSC20282,,,,7059,5.10e5,inactive
CG34171,DRSC01637,,,,6191,5.47e5,inactive
Or65b,DRSC08809,,,,4343,4.33e5,inactive
CG13643,DRSC14641,,,,5683,2.56e5,inactive
CG13643,DRSC14642,,,,7380,4.03e5,inactive
Pp1-13C,DRSC20269,,,,9584,6.49e5,inactive
Pp1-13C,DRSC23305,,reporter ratio raised past the hit cutoff,,4263,1.96e5,inactive
Drep3,DRSC06312,,,,3496,2.33e5,inactive
Drep3,DRSC07529,,,,3480,3.58e5,inactive
Drep3,DRSC22344,,,,8142,5.16e5,inactive
stwl,DRSC11400,,,,6896,2.52e5,inactive
Ada3,DRSC20321,,,,5926,4.41e5,inactive
Ada3,DRSC20322,,,,6902,5.07e5,inactive
Top1,DRSC20295,,,,5180,4.23e5,inactive
CG15044,DRSC19620,,,,5179,5.11e5,inactive
CG15044,DRSC21385,,,,9232,3.92e5,inactive
CG7465,DRSC08592,,,,6198,4.23e5,inactive
CG7465,DRSC22320,,,,8972,5.23e5,inactive
RhoGAP92B,DRSC14507,,,,8606,3.34e5,inactive
RhoGAP92B,DRSC15637,3,,,7263,3.10e5,inactive
eag,DRSC19067,,,,4536,3.61e5,inactive
eag,DRSC20328,,,,4435,3.14e5,inactive
CG18223,DRSC10306,,,,6803,4.23e5,inactive
Mrtf,DRSC08263,,reporter ratio raised past the hit cutoff,,5187,1.96e5,inactive
Mrtf,DRSC08410,,,,4899,2.65e5,inactive
Mrtf,DRSC08411,,,,5567,4.52e5,inactive
Mrtf,DRSC23194,,,,4111,3.92e5,inactive
TwdlZ,DRSC19154,,,,4283,3.97e5,inactive
CG12985,DRSC19505,,,,4587,4.06e5,inactive
CG13005,DRSC19524,,,,5423,3.99e5,inactive
CG10749,DRSC09798,,,,6648,3.71e5,inactive
vri,DRSC03633,,,reporter ratio lowered past the hit cutoff,5766,2.63e5,inactive
vri,DRSC23174,,,,3936,3.29e5,inactive
CG6724,DRSC02983,,,,6567,3.72e5,inactive
CG4611,DRSC10434,,,,6554,3.55e5,inactive
Or59c,DRSC04633,,,,6859,4.54e5,inactive
CR34254,DRSC09562,,,,5395,3.92e5,inactive
salto,DRSC06291,,,,8678,4.42e5,inactive
CG3795,DRSC18593,,,,7462,4.88e5,inactive
Cap-D3 + tomb,DRSC02347,,,,8238,5.03e5,inactive
hpRNA:CR18854,DRSC02702,,,,9146,5.10e5,inactive
Lkb1,DRSC16481,,,,9093,4.81e5,inactive
CG30379,DRSC05070,,,,4907,4.42e5,inactive
stil,DRSC07699,,,,8087,5.02e5,inactive
CG12224,DRSC14480,,,,7114,4.12e5,inactive
CG31016,DRSC21359,,,,9009,4.50e5,inactive
CG11664,DRSC18650,,,,5811,3.48e5,inactive
ato,DRSC16904,,,,7095,3.67e5,inactive
lawc (retired record),DRSC22531,,,,1192,74637,inactive
lawc (retired record),DRSC23208,,,,5214,3.67e5,inactive
Hex-t2,DRSC22517,,,reporter ratio raised past the hit cutoff,3956,2.81e5,inactive
tacc,DRSC12019,,,,6403,4.73e5,inactive
tacc,DRSC12388,,,,4031,5.25e5,inactive

Targets listed so far whose gene name begins with V or v:
Target gene,dsRNA,siRNA reporter hit score,stable siRNA reporter change,miRNA reporter change,"stable assay Renilla, run 1 (luminescence)","stable assay firefly, run 1 (luminescence)",outcome
vri,DRSC03633,,,reporter ratio lowered past the hit cutoff,5766,2.63e5,inactive
vri,DRSC23174,,,,3936,3.29e5,inactive
